The target in this experiment is T1, RBFOX2 (human (endogenous in U87MG)) (UniProt O43251).
T1 sequence: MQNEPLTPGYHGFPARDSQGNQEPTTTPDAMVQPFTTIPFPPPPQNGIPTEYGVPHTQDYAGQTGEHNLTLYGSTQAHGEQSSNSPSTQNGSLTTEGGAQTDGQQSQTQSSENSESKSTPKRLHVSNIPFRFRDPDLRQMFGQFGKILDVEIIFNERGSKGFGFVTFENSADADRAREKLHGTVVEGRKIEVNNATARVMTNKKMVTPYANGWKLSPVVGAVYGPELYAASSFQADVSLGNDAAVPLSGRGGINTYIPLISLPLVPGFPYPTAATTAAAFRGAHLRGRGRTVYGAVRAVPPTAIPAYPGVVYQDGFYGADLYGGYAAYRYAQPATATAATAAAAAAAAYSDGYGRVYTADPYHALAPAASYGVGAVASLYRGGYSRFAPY
The experiment can be described thus: co-IP; U87MG cell lysates (50 mM Tris-HCl pH 8.0, 150 mM NaCl, 0.5% NP-40, 10% glycerol, 50 U/mL benzonase) immunoprecipitated with rabbit IgG, SON antibody or RBFOX2 antibody and protein A-Sepharose at 4 °C overnight; Western blot.

No constants are given. Whether binding was seen depends on the method and setting. Binding seen in cells or lysates may run through a third protein. A result given as binding can be weak or reduced; the word gives no strength.

Consider hnRNP H (human (endogenous in U87MG)), for which the binding result is listed as “binds”.

The values above are taken from article PMC8455679.
